Source: ChEMBL document CHEMBL3988442, “University of Dundee, Small-Polar-MMV Screening Library” (2021).

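Assay of Toxoplasma gondii numbers, read through their beta-galactosidase reporter with a colour substrate. Concentration: 50 µM. The record gives no direction; the compounds picked for IC50 retests had high values, so higher reads as fewer parasites. Size under these conditions: about 18,000 compounds, about 170 of them at 50% or above in at least one test.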

Results are given as percent effect.
The record does not define 0% and 100%; most values in the screen are far below 50% and negative numbers occur (in some assays of this library far below -100).
The compounds are a random part of those screened.

| SMILES | effect |
|---|---|
| `Cn1c(CN)nc2cc(Cl)ccc21` | -7.009% |
| `NCc1ccc(N2CCNC2=O)cc1` | 17.81% |
| `NCC(C(=O)N1CCS(=O)(=O)CC1)c1ccccc1` (stereo not given) | -3.736% |
| `CCCn1nnnc1CN1CCSCC1` | -5.434% |
| `NCCCN1CCNC(=O)C1` | 1.606% |
| `Cc1cccc(OC(C)CN)c1` (stereo not given) | 14.68% |
| `CN(CCCOc1ccccc1)CC(=O)NCCC#N` | -3.564% |
| `O=C1CNCCN1Cc1ccccc1F` | -3.682% |
| `CCc1nccn1CCN1CC2(CCOC2)CCC1=O` (stereo not given) | -11.31% |
| `NCC(=O)Nc1cccc(Cl)c1` | -5.808% |
| `CSc1ncccc1C(=O)NCCN1CCC(C)CC1` | 2.096% |
| `COC(=O)CNC(=O)c1nccc2ccccc12` | 7.634% |
| `CCOCCOc1cc(C)ccc1CN` | 5.779% |
| `CC(O)CNC(=O)NCc1ccc2c(c1)OCCO2` (stereo not given) | -3.821% |
| `OCC1CCN(Cc2cc(F)cc3cccnc23)CC1` | -7.398% |
| `COc1ncccc1C(=O)NC(C)c1ccncc1` (stereo not given) | 31.61% |
| `O=C(c1nnsc1-c1ccc(Cl)cc1)N1CCSCC1` | 2.884% |
| `O=C1CN(CC(=O)N2CCCCCCC2)CCN1` | -4.858% |
| `COc1ncccc1-c1csc(NCCSC)n1` | 98.47% |
| `CC(Sc1nnc[nH]1)C(=O)Nc1ccc(C#N)cc1` (stereo not given) | 16.44% |
| `Cn1cc(C2CSCCN2Cc2cncnc2)cn1` (stereo not given) | 5.1% |
| `CCNC(=O)CNc1nnnn1-c1ccc(C)cc1` | 0.7492% |
| `C1CC(OC2CCCNC2)C1` (stereo not given) | 8.78% |
| `COc1ccc(CCN)c(OC)c1` | 48.88% |
| `Cc1cnc(C2CCCN(C(=O)c3nc(=O)[nH][nH]3)C2)s1` (stereo not given) | -4.628% |
| `COCCCNS(=O)(=O)c1ccc2c(c1)NC(=O)CS2` | 1.623% |
| `Cc1ccccc1C1(O)CNC1` | -6.003% |
| `O=C(NC1COC1)c1ccc(Br)cn1` | -12.07% |
| `COCCSc1nncn1CCc1ccccn1` | -0.02585% |
| `O=C(CSCC(F)(F)F)N1CCOc2ccncc21` | 38.99% |
| `NCCCNS(=O)(=O)c1ccc(Cl)cc1` | -0.1272% |
| `CSCCC(=O)NCc1cccc(CN2CCCC2)c1` | -8.405% |
| `Cc1nnc(SCCCN)s1` | 22.52% |
| `COC[C@]1(O)CCN(C(=O)CNS(C)(=O)=O)CC1(C)C` | -5.886% |
| `CC(C)CNC(=O)Cc1c[nH]c2ncccc12` | -68.3% |
| `Cn1cc(C(O)CN)cn1` (stereo not given) | 1.018% |
| `COCCN1CCCN(C(=O)c2ccccc2Cl)CC1` | -16.5% |
| `CN1CCCCC1CC(=O)NCCc1ccc(O)cc1` (stereo not given) | 10.76% |
| `NC1CCN(c2ccccc2F)CC1` | -9.36% |
| `CCC(NC(=O)COCCOC)c1ccnn1C` (stereo not given) | -7.299% |
| `N[C@@H]1C[C@H]1c1ccc(F)cc1` | 3.086% |
| `CN(C)S(=O)(=O)CCCn1cnc2ccccc21` | 10.67% |
| `O=S(=O)(N[C@@H]1CCOC[C@H]1O)c1cc(F)cc(F)c1` | -10.85% |
| `COc1ccc(CSc2nnc(O)[nH]2)cc1Cl` | -5.39% |
| `Cc1cc(NC(=O)CN2CC[C@@H]3CC[C@H](C2)N3C)no1` | -1.266% |
| `COc1ccc(C2CCCN2CC(N)=O)cc1` (stereo not given) | -23.5% |
| `CC(c1ccccn1)N(C)S(C)(=O)=O` (stereo not given) | 1.57% |
| `CN1CCC(NC(=O)NCc2ccc(Br)cc2F)C1=O` (stereo not given) | 13.91% |
| `CNC(=O)CN(C)C1CCCc2ccccc21` (stereo not given) | -0.7593% |
| `Cc1ccccc1C(C#N)NC(=O)Cc1cccnc1` (stereo not given) | 21.88% |
| `CCCNC(=O)c1n[nH]c2c1CC(C)CC2` (stereo not given) | -23.13% |
| `CCNC(=O)CN(CC)Cc1ccc(C#N)cc1` | 11.56% |
| `CCC(C)NC(=O)c1cccc(CN)c1` (stereo not given) | -0.4739% |
| `O=C(NCc1ccncc1)OCC(F)(F)F` | -17.95% |
| `Cn1cc(CC(CN)CO)cn1` (stereo not given) | -5.548% |
| `CCn1cnnc1CNC(=O)CC1C=CCC1` (stereo not given) | -5.511% |
| `CCC(CNC(=O)c1cnccn1)N1CCCC1` (stereo not given) | 0.6073% |
| `Nc1ncnc2ccc(Br)cc12` | 11.43% |
| `CCc1nc(CN2CCC(O)(C(F)(F)F)CC2)no1` | -1.783% |
| `Cn1nc(-c2nc(C3CCOC3)no2)ccc1=O` (stereo not given) | -11.61% |
| `O[C@H]1C[C@@H](c2cc(NCCc3ncc[nH]3)ncn2)C1` | -0.7677% |
| `CSc1ncc(CN2CCN(C(=O)N(C)C)CC2)cn1` | 19.24% |
| `CCCC(=O)NC1CCN(CC)CC1` | -13.6% |

Once more, the final 4:

SMILES,effect
Cn1nc(-c2nc(C3CCOC3)no2)ccc1=O (stereo not given),-11.61%
O[C@H]1C[C@@H](c2cc(NCCc3ncc[nH]3)ncn2)C1,-0.7677%
CSc1ncc(CN2CCN(C(=O)N(C)C)CC2)cn1,19.24%
CCCC(=O)NC1CCN(CC)CC1,-13.6%